Test results as given in publication PMC7817833.
Residue numbers refer to the chain shown, from its start. These are yes or no findings as the source states them, for the method shown. In cells and extracts the contact can be indirect. Some entries that bind do so weakly or less than the wild type. For part of these data: Where a sequence is shown, tags or fusion partners need not be part of it.

Tests used:
[1] = target: T1, Endonuclease G (ENDOG), overexpressed in L02 cells (human) (UniProt Q14249); assay: co-IP; ENDOG- or 14-3-3γ-overexpressing L02 cells; lysate in Western/IP buffer
T1 sequence: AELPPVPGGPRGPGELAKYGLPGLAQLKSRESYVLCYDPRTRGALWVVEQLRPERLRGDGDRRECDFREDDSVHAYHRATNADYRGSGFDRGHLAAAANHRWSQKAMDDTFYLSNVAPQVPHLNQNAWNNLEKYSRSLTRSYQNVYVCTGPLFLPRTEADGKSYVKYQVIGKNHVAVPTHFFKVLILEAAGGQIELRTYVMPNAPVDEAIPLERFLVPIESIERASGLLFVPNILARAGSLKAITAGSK

ENDOG T128D (human) = target: T2, ENDOG T128D (human) (UniProt Q14249); assay: co-IP; wild-type and mutant ENDOG overexpressed in ENDOG knockout L02 cells
T2 sequence: T1 sequence with T80D

[2] = target: T3, Myc-ENDOG (wild type) (human) (UniProt Q14249); assay: as above
T3 sequence: T1 sequence

[3] = target: T4, ENDOG-DD (T128D/S288D) (human) (UniProt Q14249); assay: as above
T4 sequence: T1 sequence with T80D, S240D

ENDOG S288D (human) = target: T5, ENDOG S288D (human) (UniProt Q14249); assay: as above
T5 sequence: T1 sequence with S240D

[4] = target: T3, Myc-ENDOG (wild type) (human); assay: co-IP; Myc-ENDOG or Myc-ENDOG-AA transiently transfected with or without wild-type GSK-3β or kinase dead GSK-3β-K85A in ENDOG knockout L02 cells for 48 h
Myc-14-3-3γ [5] = target: T6, Myc-14-3-3γ (UniProt P61981); assay: co-IP; ENDOG- or 14-3-3γ-overexpressing L02 cells; lysate in Western/IP buffer
T6 sequence: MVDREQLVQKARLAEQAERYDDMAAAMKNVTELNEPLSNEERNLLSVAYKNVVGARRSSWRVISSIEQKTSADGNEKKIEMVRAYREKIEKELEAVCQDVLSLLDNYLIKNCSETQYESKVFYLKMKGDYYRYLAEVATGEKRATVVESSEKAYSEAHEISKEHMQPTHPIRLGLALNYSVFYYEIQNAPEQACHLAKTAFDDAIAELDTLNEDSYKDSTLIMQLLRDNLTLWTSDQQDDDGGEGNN

[6] = target: T7, 14-3-3γ, endogenous (human (endogenous in L02)) (UniProt P61981); assay: co-IP; endogenous co-IP in L02 WT cells, with or without starvation for 12 h
T7 sequence: T6 sequence

Myc-14-3-3γ [7] = target: T6, Myc-14-3-3γ; assay: co-IP; L02 ENDOG-KO cells co-overexpressing Myc-14-3-3γ with Flag-ENDOG or empty vector for 48 h

Measured: binding

B1: 14-3-3γ, endogenous (protein, UniProt P61981 1-247)
chain: T6 sequence
binds: [1] | ENDOG T128D (human) | [2] | [3] | ENDOG S288D (human) | [4]

B2: Endonuclease G (ENDOG), endogenous (protein, UniProt Q14249 49-297)
chain: T1 sequence
binds: Myc-14-3-3γ [5] | [6]

B3: Flag-ENDOG (Endonuclease G) (protein, UniProt Q14249 49-297)
chain: T1 sequence
binds: Myc-14-3-3γ [7]
